Record: PubChem BioAssay AID1259254 (NCATS, 2017)
Assay: 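Gene knock-downs that lead to re-replication, shown by excess G2 DNA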 (primary screen). Cell system: human HCT116 colorectal cancer cells. Knock-down reagent: single siRNA against human genes. Duration: 3 days. Measured: 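Imaged Hoechst DNA stain sorts each cell into a cycle phase by DNA amount; per plate, G2 fraction set to 0% for non-targeting and 100% for GMNN siRNA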. Reading the numbers: G2 robust z-score and G2 cells, % of GMNN control: higher = more G2 cells, more excess DNA replication; raw share of cells in G2: higher = larger share of cells with G2 DNA content. Active means: 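Active siRNAs have a G2 robust z of 5 or more median absolute deviations over the median, which in these data means about 38% or higher of GMNN control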.
This is a random part of about 59,000 reagents. About 1,550 of them (2.6%) were called active. 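G2 share is only a proxy for re-replication; each gene was hit by three separate siRNAs, and active genes were retested.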 Raw values vary from plate to plate and are shown uncorrected. Reagents against one gene are numbered here. Not stated in the record: the amount of reagent.

Target gene | reagent no. | G2 robust z-score | G2 cells, % of GMNN control | raw share of cells in G2 (%) | call
CKMT1B | 1 | -0.496 | -0.524 | 5.23 | inactive
CKMT1B | 2 | 0.466 | 6.24 | 7.67 | inactive
CKMT1B | 3 | -0.799 | -2.65 | 3.09 | inactive
UQCC4 | 1 | -0.974 | -3.88 | 2.23 | inactive
UQCC4 | 2 | 1.56 | 13.9 | 8.43 | inactive
UQCC4 | 3 | -0.519 | -0.687 | 3.06 | inactive
ZNF23 | 1 | -0.171 | 1.77 | 4.11 | inactive
ZNF23 | 2 | -0.414 | 0.0533 | 6.01 | inactive
ZNF23 | 3 | 0.426 | 5.96 | 5.84 | inactive
SPEN-AS1 | 1 | -1.13 | -5 | 1.35 | inactive
SPEN-AS1 | 2 | -0.307 | 0.807 | 4.08 | inactive
SPEN-AS1 | 3 | -0.455 | -0.236 | 3.14 | inactive
SPEN-AS1 | 4 | -0.609 | -1.31 | 2.63 | inactive
SPEN-AS1 | 5 | -0.449 | -0.194 | 4.02 | inactive
SPEN-AS1 | 6 | 0.669 | 7.67 | 5.81 | inactive
FBXW12 | 1 | 2.16 | 18.2 | 10.3 | inactive
FBXW12 | 2 | -0.271 | 1.06 | 3.45 | inactive
FBXW12 | 3 | -0.0865 | 2.36 | 3.98 | inactive

Laid out differently: entries from further up
| Target gene | reagent no. | G2 robust z-score | G2 cells, % of GMNN control | raw share of cells in G2 (%) | call |
| --- | --- | --- | --- | --- | --- |
| SPEN-AS1 | 4 | -0.609 | -1.31 | 2.63 | inactive |
| SPEN-AS1 | 5 | -0.449 | -0.194 | 4.02 | inactive |
| SPEN-AS1 | 6 | 0.669 | 7.67 | 5.81 | inactive |
| FBXW12 | 1 | 2.16 | 18.2 | 10.3 | inactive |

Additional entries:
Target gene | reagent no. | G2 robust z-score | G2 cells, % of GMNN control | raw share of cells in G2 (%) | call
GSTO2 | 1 | 0.266 | 4.84 | 6.31 | inactive
GSTO2 | 2 | -0.238 | 1.3 | 6.27 | inactive
GSTO2 | 3 | 11 | 80.1 | 39.3 | active
LAIR1 | 1 | 1.6 | 14.2 | 11.1 | inactive
LAIR1 | 2 | 0.979 | 9.86 | 6.45 | inactive
LAIR1 | 3 | -0.408 | 0.1 | 5.4 | inactive
RBM4B | 1 | 2.28 | 19 | 13.3 | inactive
RBM4B | 2 | 0.0314 | 3.19 | 5.35 | inactive
RBM4B | 3 | 0.071 | 3.47 | 6.07 | inactive
ZNF606 | 1 | -0.314 | 0.756 | 3.06 | inactive
ZNF606 | 2 | -0.872 | -3.17 | 4.48 | inactive
ZNF606 | 3 | -1.03 | -4.31 | 2.28 | inactive
KLK9 | 1 | -1.08 | -4.6 | 2.96 | inactive
KLK9 | 2 | -0.749 | -2.3 | 3.4 | inactive
KLK9 | 3 | -0.972 | -3.87 | 3.96 | inactive
RNF133 | 1 | 3.88 | 30.2 | 17.4 | inactive
RNF133 | 2 | 0.942 | 9.59 | 10.5 | inactive
RNF133 | 3 | -0.6 | -1.26 | 4.24 | inactive
SERPINB3 | 1 | 0.522 | 6.64 | 7.92 | inactive
SERPINB3 | 2 | -0.0609 | 2.54 | 5.42 | inactive
SERPINB3 | 3 | 9.99 | 73.3 | 28.2 | active
REG1A | 1 | -1.18 | -5.3 | 2.65 | inactive
REG1A | 2 | -0.727 | -2.15 | 3.43 | inactive
REG1A | 3 | -0.691 | -1.9 | 4.33 | inactive
PPP1R8 | 1 | -1.28 | -6.07 | 2.82 | inactive
PPP1R8 | 2 | -0.139 | 1.99 | 4.9 | inactive
PPP1R8 | 3 | -1.12 | -4.92 | 2.02 | inactive
MYCL | 1 | -0.82 | -2.8 | 4.28 | inactive
MYCL | 2 | -0.722 | -2.11 | 2.5 | inactive
MYCL | 3 | -0.654 | -1.63 | 4.82 | inactive
